{"sequences": {"note": "By UniProt entry, the sequences of proteins in these tests, tags left out.", "UniProt O00255": "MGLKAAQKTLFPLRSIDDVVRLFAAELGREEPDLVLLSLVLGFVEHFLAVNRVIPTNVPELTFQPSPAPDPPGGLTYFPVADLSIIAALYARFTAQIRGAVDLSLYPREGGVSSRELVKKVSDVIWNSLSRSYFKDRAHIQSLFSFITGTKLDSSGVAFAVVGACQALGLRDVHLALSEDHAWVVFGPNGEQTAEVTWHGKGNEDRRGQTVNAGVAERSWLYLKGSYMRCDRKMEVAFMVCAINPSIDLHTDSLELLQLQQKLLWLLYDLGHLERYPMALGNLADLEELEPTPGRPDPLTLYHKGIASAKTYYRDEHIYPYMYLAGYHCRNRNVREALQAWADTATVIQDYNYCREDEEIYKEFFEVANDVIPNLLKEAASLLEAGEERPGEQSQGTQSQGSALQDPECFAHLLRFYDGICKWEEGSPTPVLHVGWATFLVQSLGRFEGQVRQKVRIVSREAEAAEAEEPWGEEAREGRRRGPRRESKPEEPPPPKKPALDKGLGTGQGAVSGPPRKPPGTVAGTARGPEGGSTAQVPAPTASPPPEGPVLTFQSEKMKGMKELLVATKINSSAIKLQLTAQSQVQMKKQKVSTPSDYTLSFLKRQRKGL", "UniProt P67809": "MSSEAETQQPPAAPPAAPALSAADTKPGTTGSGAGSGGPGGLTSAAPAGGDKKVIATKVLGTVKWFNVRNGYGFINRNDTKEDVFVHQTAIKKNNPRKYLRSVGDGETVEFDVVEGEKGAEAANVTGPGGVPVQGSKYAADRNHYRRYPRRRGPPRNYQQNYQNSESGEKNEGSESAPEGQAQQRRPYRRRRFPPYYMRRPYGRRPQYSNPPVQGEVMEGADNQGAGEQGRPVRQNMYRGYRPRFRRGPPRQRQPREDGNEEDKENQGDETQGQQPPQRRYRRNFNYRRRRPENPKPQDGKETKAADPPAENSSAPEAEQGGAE"}, "source": "paper PMC12396302", "biological_target": "Menin (human (endogenous in PL45 and Bx-PC3)) (UniProt O00255)", "assay": "affinity purification with mass spectrometry; immunoprecipitation from PL45 cell lysate with anti-Menin antibody on beads (Pierce Direct Magnetic IP/Co-IP kit), overnight at 4°C, IgG as negative control; eluted proteins analysed by LC-MS/MS", "note": "These are yes or no findings as the source states them, for the method shown. Binding seen in cells or lysates may run through a third protein. These calls come from enrichment with a bait or labelling near it, and not all partners need be listed.", "data": [{"substance": "Y-box binding protein 1 (YBX1) (from UniProt P67809 1-324)", "values": [{"measurement": "binding", "value": "binds"}]}]}
